{"source": "PubChem BioAssay AID686943 (Drosophila RNAi Screening Center, 2013)", "assay": "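Fly genes whose loss alters ERK activation after insulin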 (primary screen)", "cell system": "Drosophila S2R+ haemocyte-like cells expressing YFP-tagged ERK (Rolled)", "knock-down reagent": "long dsRNA against Drosophila genes", "treatment": "insulin stimulation versus unstimulated cells; dose and duration not given", "read-out": "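Antibody staining for doubly phosphorylated ERK divided by ERK-YFP signal, as plate z-scores, in insulin-treated and untreated cells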", "direction": "replicate 1, z-score of dpERK with insulin: higher = more active ERK per ERK-YFP after insulin", "note": "The deposit covers about 23,000 reagents; below is a random part of those that have a named target and a result. 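Extra replicates exist only for a retested subset of genes; insulin dose and duration not given; both raised and lowered dpERK matter.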 Names joined by + are all predicted targets of the reagent. Further read-outs or replicates are left out here. Not given: the amount of reagent, the time to read-out."}
The opening 2 records, ahead of the listing:
{"predicted target": "ck", "amplicon": "DRSC03509", "replicate 1, z-score of dpERK with insulin": 1.31}
{"predicted target": "CG31229", "amplicon": "DRSC13309", "replicate 1, z-score of dpERK with insulin": 0.52}

Main list, from the start:
{"predicted target": "ck", "amplicon": "DRSC03509", "replicate 1, z-score of dpERK with insulin": 1.31}
{"predicted target": "CG31229", "amplicon": "DRSC13309", "replicate 1, z-score of dpERK with insulin": 0.52}
{"predicted target": "CG32202", "amplicon": "DRSC09989", "replicate 1, z-score of dpERK with insulin": -0.84}
{"predicted target": "CG11474", "amplicon": "DRSC04112", "replicate 1, z-score of dpERK with insulin": 0.05}
{"predicted target": "scpr-A + scpr-C", "amplicon": "DRSC15737", "replicate 1, z-score of dpERK with insulin": 0.28}
{"predicted target": "Rab18", "amplicon": "DRSC18702", "replicate 1, z-score of dpERK with insulin": -0.51}
{"predicted target": "Ser12", "amplicon": "DRSC00786", "replicate 1, z-score of dpERK with insulin": 0.48}
{"predicted target": "CG42663", "amplicon": "DRSC06158", "replicate 1, z-score of dpERK with insulin": -2.46}
{"predicted target": "CG42663", "amplicon": "DRSC06404", "replicate 1, z-score of dpERK with insulin": 1.55}
{"predicted target": "CG42675", "amplicon": "DRSC12157", "replicate 1, z-score of dpERK with insulin": -0.57}
{"predicted target": "CG42675", "amplicon": "DRSC21868", "replicate 1, z-score of dpERK with insulin": -0.75}
{"predicted target": "GNBP2", "amplicon": "DRSC10404", "replicate 1, z-score of dpERK with insulin": 0.56}
{"predicted target": "CG6059", "amplicon": "DRSC15958", "replicate 1, z-score of dpERK with insulin": -0.24}
{"predicted target": "CG7140", "amplicon": "DRSC11799", "replicate 1, z-score of dpERK with insulin": -0.21}
{"predicted target": "cu", "amplicon": "DRSC15643", "replicate 1, z-score of dpERK with insulin": 0.06}
{"predicted target": "cu", "amplicon": "DRSC15648", "replicate 1, z-score of dpERK with insulin": 0.55}
{"predicted target": "unc-13-4A", "amplicon": "DRSC10201", "replicate 1, z-score of dpERK with insulin": -0.23}
{"predicted target": "unc-13-4A", "amplicon": "DRSC10202", "replicate 1, z-score of dpERK with insulin": -0.02}
{"predicted target": "unc-13-4A", "amplicon": "DRSC10203", "replicate 1, z-score of dpERK with insulin": -2.71}
{"predicted target": "unc-13-4A", "amplicon": "DRSC11013", "replicate 1, z-score of dpERK with insulin": 0.23}
{"predicted target": "GATAd", "amplicon": "DRSC02803", "replicate 1, z-score of dpERK with insulin": -0.06}
{"predicted target": "Pgk", "amplicon": "DRSC00769", "replicate 1, z-score of dpERK with insulin": 0.79}
{"predicted target": "5-HT2A", "amplicon": "DRSC11990", "replicate 1, z-score of dpERK with insulin": -1.14}
{"predicted target": "CG13876", "amplicon": "DRSC08346", "replicate 1, z-score of dpERK with insulin": 0.25}
{"predicted target": "CG4259", "amplicon": "DRSC00645", "replicate 1, z-score of dpERK with insulin": -0.02}
{"predicted target": "Mbs", "amplicon": "DRSC09414", "replicate 1, z-score of dpERK with insulin": -0.05}
{"predicted target": "Mbs", "amplicon": "DRSC10525", "replicate 1, z-score of dpERK with insulin": 0.31}
{"predicted target": "Mbs", "amplicon": "DRSC10553", "replicate 1, z-score of dpERK with insulin": 0.01}
{"predicted target": "Wnk", "amplicon": "DRSC11813", "replicate 1, z-score of dpERK with insulin": -0.11}
{"predicted target": "CG11927", "amplicon": "DRSC00337", "replicate 1, z-score of dpERK with insulin": -1.02}
{"predicted target": "Amy-d", "amplicon": "DRSC05919", "replicate 1, z-score of dpERK with insulin": 0.81}
{"predicted target": "dsd", "amplicon": "DRSC13829", "replicate 1, z-score of dpERK with insulin": 0.23}
{"predicted target": "dsd", "amplicon": "DRSC15850", "replicate 1, z-score of dpERK with insulin": 2.23}
{"predicted target": "Gem3", "amplicon": "DRSC11144", "replicate 1, z-score of dpERK with insulin": -0.76}
{"predicted target": "Sec31", "amplicon": "DRSC07131", "replicate 1, z-score of dpERK with insulin": 0.45}
{"predicted target": "Coq3", "amplicon": "DRSC03168", "replicate 1, z-score of dpERK with insulin": 0.05}
{"predicted target": "CG33257", "amplicon": "DRSC09917", "replicate 1, z-score of dpERK with insulin": 0.33}
{"predicted target": "Ir64a", "amplicon": "DRSC09759", "replicate 1, z-score of dpERK with insulin": -0.41}
{"predicted target": "Ir64a", "amplicon": "DRSC09760", "replicate 1, z-score of dpERK with insulin": 0.35}
{"predicted target": "Myt1", "amplicon": "DRSC11228", "replicate 1, z-score of dpERK with insulin": 0.38}
